{"source": "PubChem BioAssay AID1224828 – NIAID | 2016", "screen": "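Regulators linking TLR4 signalling to p65 nuclear translocation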 (primary screen)", "cells": "mouse RAW264.7 G9 macrophage reporter cells (GFP-p65, Tnf promoter-mCherry)", "knock-down reagent": "siRNA pool against mouse genes, 100 nM", "duration": "2 days siRNA transfection, then 40 min LPS before fixation", "challenge": "LPS (Salmonella minnesota R595) at 10 ng/ml", "detection": "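Imaged p65 nuclear translocation ratio, normalised to the plate median, converted to robust z-scores and averaged across two replicates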", "scale": "p65 translocation robust z-score: higher = more nuclear NF-kappaB p65 after LPS than the plate median; nuclear/cytoplasmic p65 ratio: higher = more nuclear NF-kappaB p65", "active means": "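Active if robust z is above 3.3 (negative regulators) or below -1.56, the Tlr4 control median (positive regulators); activity score 50 or more; control wells not called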", "calls": "active = hit (p65 shift raised or lowered); inactive = no clear change", "note": "The whole screen tested about 17,000 reagents; below is a part drawn at random. In the full data, 762 (4.5%) were called active. 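Active calls include both raised and lowered p65 entry, mostly lowered; wells with fewer than 50 cells lack a z-score.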 Raw values are not corrected between plates."}
{"Gene": "Lemd2 (GeneID 224640)", "PubChem SID": "SID315478353", "p65 translocation robust z-score": 1.36, "nuclear/cytoplasmic p65 ratio, rep 1": 1.78, "nuclear/cytoplasmic p65 ratio, rep 2": 2.07, "low cell count flag": "enough cells to score", "outcome": "inactive"}
{"Gene": "F830004M19Rik (GeneID 320224)", "PubChem SID": "SID315481263", "p65 translocation robust z-score": 0.46, "nuclear/cytoplasmic p65 ratio, rep 1": 1.49, "nuclear/cytoplasmic p65 ratio, rep 2": 1.54, "low cell count flag": "enough cells to score", "outcome": "inactive"}
{"Gene": "Gpn1 (GeneID 74254)", "PubChem SID": "SID315474922", "p65 translocation robust z-score": -0.72, "nuclear/cytoplasmic p65 ratio, rep 1": 1.23, "nuclear/cytoplasmic p65 ratio, rep 2": 1.24, "low cell count flag": "enough cells to score", "outcome": "inactive"}
{"Gene": "Ptp4a2 (GeneID 19244)", "PubChem SID": "SID315468792", "p65 translocation robust z-score": 0.94, "nuclear/cytoplasmic p65 ratio, rep 1": 1.58, "nuclear/cytoplasmic p65 ratio, rep 2": 1.58, "low cell count flag": "enough cells to score", "outcome": "inactive"}
{"Gene": "Sdf2 (GeneID 20316)", "PubChem SID": "SID315469151", "p65 translocation robust z-score": 0.39, "nuclear/cytoplasmic p65 ratio, rep 1": 1.56, "nuclear/cytoplasmic p65 ratio, rep 2": 1.19, "low cell count flag": "enough cells to score", "outcome": "inactive"}
{"Gene": "Galp (GeneID 232836)", "PubChem SID": "SID315479014", "nuclear/cytoplasmic p65 ratio, rep 1": 1.15, "nuclear/cytoplasmic p65 ratio, rep 2": 1.21, "low cell count flag": "fewer than 50 cells per well; well left out of scoring", "outcome": "inactive"}
{"Gene": "Mbd3 (GeneID 17192)", "PubChem SID": "SID315467848", "p65 translocation robust z-score": -0.35, "nuclear/cytoplasmic p65 ratio, rep 1": 1.44, "nuclear/cytoplasmic p65 ratio, rep 2": 1.26, "low cell count flag": "enough cells to score", "outcome": "inactive"}
{"Gene": "Phf10 (GeneID 72057)", "PubChem SID": "SID315474439", "p65 translocation robust z-score": 0.18, "nuclear/cytoplasmic p65 ratio, rep 1": 1.54, "nuclear/cytoplasmic p65 ratio, rep 2": 1.2, "low cell count flag": "enough cells to score", "outcome": "inactive"}
{"Gene": "Gnai3 (GeneID 14679)", "PubChem SID": "SID315466944", "p65 translocation robust z-score": 0.52, "nuclear/cytoplasmic p65 ratio, rep 1": 1.54, "nuclear/cytoplasmic p65 ratio, rep 2": 1.7, "low cell count flag": "enough cells to score", "outcome": "inactive"}
{"Gene": "Gbp2 (GeneID 14469)", "PubChem SID": "SID315466845", "p65 translocation robust z-score": -0.95, "nuclear/cytoplasmic p65 ratio, rep 1": 1.24, "nuclear/cytoplasmic p65 ratio, rep 2": 1.32, "low cell count flag": "enough cells to score", "outcome": "inactive"}
{"Gene": "1700012A03Rik (GeneID 76382)", "PubChem SID": "SID315475297", "nuclear/cytoplasmic p65 ratio, rep 1": 1.6, "nuclear/cytoplasmic p65 ratio, rep 2": 1.34, "low cell count flag": "fewer than 50 cells per well; well left out of scoring", "outcome": "inactive"}
{"Gene": "Gstm2 (GeneID 14863)", "PubChem SID": "SID315467059", "p65 translocation robust z-score": -0.26, "nuclear/cytoplasmic p65 ratio, rep 1": 1.38, "nuclear/cytoplasmic p65 ratio, rep 2": 1.36, "low cell count flag": "enough cells to score", "outcome": "inactive"}
{"Gene": "Ints2 (GeneID 70422)", "PubChem SID": "SID315474046", "p65 translocation robust z-score": 3.46, "nuclear/cytoplasmic p65 ratio, rep 1": 1.71, "nuclear/cytoplasmic p65 ratio, rep 2": 1.65, "low cell count flag": "enough cells to score", "outcome": "active"}
{"Gene": "Dmbt1 (GeneID 12945)", "PubChem SID": "SID315466132", "p65 translocation robust z-score": 1.72, "nuclear/cytoplasmic p65 ratio, rep 1": 1.72, "nuclear/cytoplasmic p65 ratio, rep 2": 1.56, "low cell count flag": "enough cells to score", "outcome": "inactive"}
{"Gene": "Tsc1 (GeneID 64930)", "PubChem SID": "SID315472131", "p65 translocation robust z-score": -0.31, "nuclear/cytoplasmic p65 ratio, rep 1": 1.46, "nuclear/cytoplasmic p65 ratio, rep 2": 1.47, "low cell count flag": "enough cells to score", "outcome": "inactive"}
{"Gene": "Gsdma2 (GeneID 76758)", "PubChem SID": "SID315475371", "nuclear/cytoplasmic p65 ratio, rep 1": 1.1, "nuclear/cytoplasmic p65 ratio, rep 2": 1.38, "low cell count flag": "fewer than 50 cells per well; well left out of scoring", "outcome": "inactive"}
{"Gene": "Gng2 (GeneID 14702)", "PubChem SID": "SID315466961", "p65 translocation robust z-score": 1.3, "nuclear/cytoplasmic p65 ratio, rep 1": 1.78, "nuclear/cytoplasmic p65 ratio, rep 2": 1.79, "low cell count flag": "enough cells to score", "outcome": "inactive"}
{"Gene": "Gm9725 (GeneID 105243233)", "PubChem SID": "SID315474131", "p65 translocation robust z-score": 1.04, "nuclear/cytoplasmic p65 ratio, rep 1": 1.26, "nuclear/cytoplasmic p65 ratio, rep 2": 1.51, "low cell count flag": "enough cells to score", "outcome": "inactive"}
{"Gene": "Zfp109 (GeneID 56869)", "PubChem SID": "SID315471709", "p65 translocation robust z-score": 0.23, "nuclear/cytoplasmic p65 ratio, rep 1": 1.41, "nuclear/cytoplasmic p65 ratio, rep 2": 1.3, "low cell count flag": "enough cells to score", "outcome": "inactive"}
{"Gene": "Or5p58 (GeneID 258728)", "PubChem SID": "SID315480378", "p65 translocation robust z-score": -0.39, "nuclear/cytoplasmic p65 ratio, rep 1": 1.02, "nuclear/cytoplasmic p65 ratio, rep 2": 1.22, "low cell count flag": "enough cells to score", "outcome": "inactive"}
{"Gene": "Zfp598 (GeneID 213753)", "PubChem SID": "SID315477822", "p65 translocation robust z-score": 0, "nuclear/cytoplasmic p65 ratio, rep 1": 1.34, "nuclear/cytoplasmic p65 ratio, rep 2": 1.31, "low cell count flag": "enough cells to score", "outcome": "inactive"}

Limited to “nuclear/cytoplasmic p65 ratio, rep 2”, for 3 of the entries above:
Ints2 (GeneID 70422) [SID315474046]	1.65
Dmbt1 (GeneID 12945) [SID315466132]	1.56
Tsc1 (GeneID 64930) [SID315472131]	1.47
